This is an account of results in PubChem BioAssay AID248 (DTP/NCI, 2004).

The experiment has as its system L1210 leukemia ip in BDF1 mice, survival T/C. Description: NCI In Vivo Anticancer Drug Screen. Data for tumor model L1210 Leukemia (intraperitoneal) in B6D2F1 (BDF1) mice. The note with it: T/C endpoint: mean survival time, higher T/C = longer survival.
The mark [1] stands for this setting: dose: 400.0 mg/kg/injection, schedule: Q04DX003 (ip), vehicle: Klucel (hydroxypropylcellulose) (HPC).
Where [2] appears, read: dose: 200.0 mg/kg/injection, schedule: Q01DX009 (ip), vehicle: saline with Tween-80.
[3] abbreviates: dose: 400.0 mg/kg/injection, schedule: Q04DX002 (ip), vehicle: saline.
Setting [4] is: dose: 300.0 mg/kg/injection, schedule: Q01DX001 (ip), vehicle: saline.
Setting [5] is: dose: 100.0 mg/kg/injection, schedule: Q01DX009 (ip), vehicle: Klucel (hydroxypropylcellulose) (HPC).
Setting [6] is: dose: 200.0 mg/kg/injection, schedule: Q01DX009 (ip), vehicle: Klucel (hydroxypropylcellulose) (HPC).
Setting [7] is: dose: 200.0 mg/kg/injection, schedule: Q04DX003 (ip), vehicle: Klucel (hydroxypropylcellulose) (HPC).
Where [8] appears, read: dose: 100.0 mg/kg/injection, schedule: Q04DX002 (ip), vehicle: saline.
Setting [9] is: dose: 400.0 mg/kg/injection, schedule: Q01DX001 (ip), vehicle: saline.

The structures appear in SMILES notation. The list is a part of this screen's results and no random one: it gathers tests that were run many times, whatever their T/C, doses with no T/C, and many T/C values between a quarter and a half above the control. Further doses and runs are listed elsewhere. T/C is the treated group as % of the vehicle group. Some doses have a count of surviving animals in place of a T/C: the source files T/C as zero there, which appears to mark a toxic dose or a test without result, not a measured value. Some survivor counts are full or nearly so, which does not show that the dose was tolerated: the source hardly ever lists a survival T/C far under the control, and the zero likely stands for such cases as well. Survivors were counted at the toxicity check, usually on the fifth day, unless a day is given; later deaths do not show. Schedules are NCI's codes, taken here to give the interval after Q, in days (D) or hours (H), and the number of doses after X. Some entries were tested several times; the values are given in rising order. Some schedules carry Z or #; the key to these is not given. For survival time, the PubChem record calls one and a half times the control and up active, and a quarter to a half above the control has no call in these data; cut-offs in other NCI protocols can differ.

Take `[O-]/[N+](=C\c1cccc(Cl)c1)c1ccccc1`: under setting [1], the survivor count is given as 3 of 6.
In the case of `COc1cccc2c(=O)c(COC(C)=O)c(C)[nH]c12`, the survivor count is given as 6 of 6 under setting [2] and 6 of 6 (dose: 400.0 mg/kg/injection, schedule: Q01DX009 (ip), vehicle: saline with Tween-80).
Turning to `CC(C)(C)C1=CC(=O)C(N=[N+]=[N-])=CC1=O`, the survivor count under setting [3] is given as 2 of 3.
For the compound `Oc1ccccc1OB(Oc1ccccc1O)N(CCCl)CCCl`, the survivor count reads like this: (dose: 200.0 mg/kg/injection, schedule: Q01DX001 (ip), vehicle: other) 3 of 6; (dose: 400.0 mg/kg/injection, schedule: Q01DX001 (ip), vehicle: other) 0 of 6.
Turning to `NOC(=O)c1ccccc1`, the survivor count under setting [3] is on record as 0 of 3.
On to `c1ccc(C2NC2c2ccccc2)cc1` (stereo not given), for which, where the note is “dose: 400.0 mg/kg/injection, schedule: Q01DX001 (ip), vehicle: carboxymethylcellulose (CMC)”, the survivor count was 1 of 4.
`CC1(Br)C(=O)C(O)=C(Br)C1=O` (stereo not given): the survivor count under setting [4] is given as 1 of 6.
Consider `ClC1=NC(Cl)(Cl)C(Cl)=C1Cl`, for which the survivor count by setting is: (dose: 50.0 mg/kg/injection, schedule: Q04DX002 (ip), vehicle: saline with Tween-80) 0 of 3; (dose: 100.0 mg/kg/injection, schedule: Q04DX002 (ip), vehicle: saline with Tween-80) 0 of 3; (dose: 200.0 mg/kg/injection, schedule: Q04DX002 (ip), vehicle: saline with Tween-80) 0 of 3.
As for `COC(=O)Nc1cc2c3c(c1)CCCN3CCC2`, the survivor count under setting [2] is listed as 6 of 6.
With `C[N+](C)(C)CCOC(=O)c1cc(CBr)cc(CBr)c1`, for the setting “dose: 100.0 mg/kg/injection, schedule: Q01DX009 (ip), vehicle: saline”, the survivor count was 6 of 6.
In the case of `CC(/C=N/NC1=NCCN1)=N/NC1=NCCN1`, the survivor count by setting is: (dose: 189.0 mg/kg/injection, schedule: Q01DX Z (ip), vehicle: carboxymethylcellulose (CMC)) 2 of 6; (dose: 252.0 mg/kg/injection, schedule: Q01DX Z (ip), vehicle: carboxymethylcellulose (CMC)) 0 of 6.
As for `Nc1ccc2cn[nH]c2c1`, the survivor count (dose: 400.0 mg/kg/injection, schedule: Q01DX009 (ip), vehicle: water) is recorded as 4 of 6.
For `O=NO.O=N[O-].O=N[O-].[Co+3].[NH2-].[NH2-].[NH2-].[NH2-]`, the survivor count (dose: 50.0 mg/kg/injection, schedule: Q01DX009 (ip), vehicle: Klucel (hydroxypropylcellulose) (HPC)) is 6 of 6; the survivor count under setting [5] is 1 of 6; the survivor count under setting [6] is 0 of 6; the survivor count under setting [7] was 0 of 6; the survivor count under setting [1] is given as 0 of 6.
For the compound `CCN(CC)CCOc1ccc(N=N/C(C(C)=O)=C(\C)O)cc1`, the T/C under setting [8] is 87, 93, 101 % of control. Further, the survivor count runs as follows: under setting [8], 6 of 6; (dose: 200.0 mg/kg/injection, schedule: Q04DX002 (ip), vehicle: saline) 0 of 3 and 0 of 6; under setting [3], 0 of 3 and 1 of 6.
`CCNS(=O)(=O)c1ncnc2nc[nH]c12`: the T/C was 127 % of control (dose: 100.0 mg/kg/injection, schedule: Q01DX Z (ip), vehicle: carboxymethylcellulose (CMC)) and 141 % of control (dose: 150.0 mg/kg/injection, schedule: Q01DX Z (ip), vehicle: carboxymethylcellulose (CMC)).
For `C[N+]1(C)CCOCC1`, the survivor count is, setting by setting: (dose: 75.0 mg/kg/injection, schedule: Q01DX001 (ip), vehicle: saline) 2 of 6; (dose: 150.0 mg/kg/injection, schedule: Q01DX001 (ip), vehicle: saline) 0 of 6; under setting [4], 0 of 6.
Regarding `NNc1nc2ccccc2o1`, the survivor count (dose: 75.0 mg/kg/injection, schedule: Q01DX009 (ip), vehicle: saline with Tween-80) is 0 of 6; the survivor count (dose: 150.0 mg/kg/injection, schedule: Q01DX009 (ip), vehicle: saline with Tween-80) was 0 of 6; the survivor count (dose: 300.0 mg/kg/injection, schedule: Q01DX009 (ip), vehicle: saline with Tween-80) is reported as 0 of 6.
Regarding `O=[N+]([O-])c1ccc(Cl)cc1/C=N/Nc1c2ccccc2nc2ccccc12`, the survivor count is on record as 4 of 4 (dose: 200.0 mg/kg/injection, schedule: Q01DX001 (ip), vehicle: saline) and 4 of 4 under setting [9].
Take `O=C(CCN1CC1)Nc1ccc(Cl)c(Cl)c1`: the survivor count under setting [5] is reported as 1 of 6, the survivor count under setting [7] is reported as 2 of 6 and the survivor count under setting [1] is on record as 0 of 6.
As to `CSc1ccc(NC(=O)Oc2cc(C)ccc2C(C)C)cc1`, the survivor count under setting [6] was 6 of 6.
Consider `NC(CSS(=O)(=O)O)=NCCc1ccccc1`, for which the survivor count (dose: 25.0 mg/kg/injection, schedule: Q04DX002 (ip), vehicle: Klucel (hydroxypropylcellulose) (HPC)) is 0 of 3; the survivor count (dose: 50.0 mg/kg/injection, schedule: Q04DX002 (ip), vehicle: Klucel (hydroxypropylcellulose) (HPC)) is 0 of 3; the survivor count (dose: 100.0 mg/kg/injection, schedule: Q04DX002 (ip), vehicle: Klucel (hydroxypropylcellulose) (HPC)) is listed as 0 of 3; the survivor count (dose: 200.0 mg/kg/injection, schedule: Q04DX002 (ip), vehicle: Klucel (hydroxypropylcellulose) (HPC)) was 0 of 3; the survivor count (dose: 400.0 mg/kg/injection, schedule: Q04DX002 (ip), vehicle: Klucel (hydroxypropylcellulose) (HPC)) is given as 0 of 3.
`CCC(=O)c1ccc(N=Nc2c(N)nc(N)nc2N)cc1`: the survivor count under setting [9] is 0 of 4.
For the compound `CC(C)CCC[C@@H](C)[C@H]1CC[C@H]2[C@@H]3CC[C@H]4C[C@H]5N[C@H]5C[C@]4(C)[C@H]3CC[C@]12C`, under “dose: 200.0 mg/kg/injection, schedule: Q01DX001 (ip), vehicle: Klucel (hydroxypropylcellulose) (HPC)”, the survivor count is 6 of 6.
Take `BrCCOc1ccccc1`: the survivor count (dose: 400.0 mg/kg/injection, schedule: Q01DX009 (ip), vehicle: other) is listed as 2 of 6.
As to `O=C(NO)c1cccnc1`, the T/C is, setting by setting: (dose: 400.0 mg/kg/injection, schedule: Q01DX015 (ip), vehicle: water) 126 and 132 % of control; (dose: 600.0 mg/kg/injection, schedule: Q01DX015 (ip), vehicle: water) 126 and 139 % of control.
